Assay results from article PMC4479014.
No constants are given. Whether binding was seen depends on the method and setting. In cells and extracts the contact can be indirect. Here binding means that the protein was enriched with, or labelled near, the bait; the list need not be complete.

The chains behind the UniProt entries cited, without tags or fusion partners.
UniProt P56959: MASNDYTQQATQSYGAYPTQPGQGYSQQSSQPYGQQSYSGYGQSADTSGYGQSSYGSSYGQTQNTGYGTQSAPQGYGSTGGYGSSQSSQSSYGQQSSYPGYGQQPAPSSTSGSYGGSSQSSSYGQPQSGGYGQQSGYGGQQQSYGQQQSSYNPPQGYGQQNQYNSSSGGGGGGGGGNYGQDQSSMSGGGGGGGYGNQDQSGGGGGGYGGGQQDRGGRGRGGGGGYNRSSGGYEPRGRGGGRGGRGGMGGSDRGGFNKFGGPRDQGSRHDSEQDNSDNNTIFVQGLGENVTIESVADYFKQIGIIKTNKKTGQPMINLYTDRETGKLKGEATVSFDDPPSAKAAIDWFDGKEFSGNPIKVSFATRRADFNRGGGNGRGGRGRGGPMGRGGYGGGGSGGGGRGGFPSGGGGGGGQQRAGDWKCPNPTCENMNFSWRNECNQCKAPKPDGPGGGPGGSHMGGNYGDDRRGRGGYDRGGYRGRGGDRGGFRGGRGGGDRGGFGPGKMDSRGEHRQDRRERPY

B1: cleavage and polyadenylation-specific factor CPSF6 (in neuroblastoma cells) (protein, UniProt Q6NVF9 1-551)
chain: MADGVDHIDIYADVGEEFNQEAEYGGHDQIDLYDDVISPSANNGDAPEDRDYMDTLPPTVGDDVGKGAAPNVVYTYTGKRIALYIGNLTWWTTDEDLTEAVHSLGVNDILEIKFFENRANGQSKGFALVGVGSEASSKKLMDLLPKRELHGQSPVVTPCNKQFLSQFEMQSRKTTQSGQMSGEGKAGPPGGGSRAAFPQGGRGRGRFPGAVPGGDRFPGPAGPGGPPPPFPAGQTPPRPPLGPPGPPGPPGPPPPGQVLPPPLAGPPNRGDRPPPPVLFPGQPFGQPPLGPLPPGPPPPVPGYGPPPGPPPPQQGPPPPPGPFPPRPPGPLGPPLTLAPPPHLPGPPPGAPPPAPHVNPAFFPPPTNSGMPTSDSRGPPPTDPYGRPPPYDRGDYGPPGREMDTARTPLSEAEFEEIMNRNRAISSSAISRAVSDASAGDYGSAIETLVTAISLIKQSKVSADDRCKVLISSLQDCLHGIESKSYGSGSRRERSRERDHSRSREKSRRHKSRSRDRHDDYYRERSRERERHRDRDRDRDRERDREREYRHR
B2: poly (A)-specific ribonuclease PAN2 (in neuroblastoma cells) (protein, UniProt Q8BGF7 1-1200)
chain: MNFEGLDPGLAEFSPAMHSTLDPVLDAHLNPSLLQNVELDPEGVALEALPVQESVHIMEGVYSELHSVVAEVGVPVSVSHFDLHEEMLWVGSHGGHATSFFGPALERYSSFQVNGGDDIRQIQSLENGILFLTKNNLKYMARGGLIIFDYLLDENEDMHSVLLTDNSTLLVGGLQNHVLEIDLNTVQETQKYAVETPGVTIMRQTNRFFFCGHTSGKVSLRDLRSFKVEHEFDAFSGSLSDFDVHGNLLAACGFSSRLTGLACDRFLKVYDLRMMRAITPLQVHVDPAFLRFIPTYTSRLAIISQSGQCQFCEPTGLANPADIFHVNPVGPLLMTFDVSASKQALAFGDSEGCVHLWTDSPEPSFNPYSRETEFALPCLVDSLPPLDWSQDLLPLSLIPVPLTTDALLSDWPAANSAPAPRRAPPVDAEILRTMKKVGFIGYAPNPRTRLRNQIPYRLKESDHEFDNFSQVTESPTGREEEPLHTVSKKYRKVTIKYSKLGLEDFDFKHYNKTLFAGLEPHIPNAYCNCMIQVLYFLEPVRCLIQNHLCQKEFCLACELGFLFHMLDLSRGDPCQGSNFLRAFRTIPEASALGLILADSDEASGKGSLARLIQRWNRFILTQLHQDMQELEVPQAYRGAGGSFCSSGDSIIGQLFSCEMENCSLCRCGSETVRASSTLLFTLSYPEDKTGKNYDFAQVLKRSICLEQNTQAWCDNCEKYQPTIQTRNIRHLPDILVINCEVNSSKEADFWRLQAEVAFKIAVKKYGGEMKSKEFALADRKELRSPEGFLCSSIEELKNVWLPFSIRMKMTKNKGLDVCNWADEHELSSLGAPSQWGPARAEEELGVYVYDLMATVVHILDSRTGGSLVAHIKVGETYHQRKEGVTHQQWYLFNDFLIEPIDKYEAVQFDMNWKVPAILYYVKRNLNSRYNLNIKNPIEASVLLAEASLARKQRKTHTTFIPLMLNEMPQVGDLVGLDAEFVTLNEEEAELRSDGTKSTIKPSQMSVARITCVRGQGPNEGIPFIDDYISTQEQVVDYLTQYSGIKPGDLDAKISSKHLTTLKSTYLKLRFLIDIGVKFVGHGLQKDFRVINLMVPKDQVLDTVYLFHMPRKRMISLRFLAWYFLDLKIQGETHDSIEDARTALQLYRKYLELSKNGTEPESFHKVLKGLYEKGRKMDWKVPEPESQTSPKNAAVFSVLAL

Biological target: FUS (in neuroblastoma cells) (UniProt P56959)
Experiment: affinity purification with mass spectrometry; IP of FUS in neuroblastoma cells, associated proteins identified by mass spectrometry (Supplementary Table 1)

Binder | binding
B1 | binds
B2 | binds
